Test results published in paper PMC12552473.
No constants are given. Whether binding was seen depends on the method and setting. Binding seen in cells or lysates may run through a third protein. Some entries that bind do so weakly or less than the wild type. Tags and fused reporters may be left off the sequences shown.

Sequences of proteins named here, by UniProt entry; tags and fusion partners are left off.
UniProt Q16665: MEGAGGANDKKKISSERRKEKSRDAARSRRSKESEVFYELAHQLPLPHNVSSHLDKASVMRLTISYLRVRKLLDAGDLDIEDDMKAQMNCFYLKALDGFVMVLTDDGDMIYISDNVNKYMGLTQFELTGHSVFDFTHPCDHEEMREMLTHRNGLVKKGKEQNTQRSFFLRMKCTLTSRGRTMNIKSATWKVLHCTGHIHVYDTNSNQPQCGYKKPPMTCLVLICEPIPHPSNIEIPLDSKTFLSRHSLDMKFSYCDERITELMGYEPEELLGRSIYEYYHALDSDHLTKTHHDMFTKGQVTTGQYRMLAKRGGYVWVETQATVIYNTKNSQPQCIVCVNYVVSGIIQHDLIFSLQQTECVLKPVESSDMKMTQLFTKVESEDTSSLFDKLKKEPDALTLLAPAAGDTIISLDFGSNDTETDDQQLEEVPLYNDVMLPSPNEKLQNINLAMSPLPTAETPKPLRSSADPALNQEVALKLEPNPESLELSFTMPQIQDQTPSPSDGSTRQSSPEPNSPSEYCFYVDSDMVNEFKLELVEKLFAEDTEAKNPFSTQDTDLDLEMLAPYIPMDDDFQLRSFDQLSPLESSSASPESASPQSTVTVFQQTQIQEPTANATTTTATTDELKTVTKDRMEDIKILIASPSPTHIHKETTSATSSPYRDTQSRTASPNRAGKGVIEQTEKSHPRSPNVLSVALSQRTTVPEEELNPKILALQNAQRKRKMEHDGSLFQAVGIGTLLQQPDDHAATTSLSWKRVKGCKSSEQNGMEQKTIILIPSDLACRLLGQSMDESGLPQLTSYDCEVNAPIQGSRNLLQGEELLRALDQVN

Target: Myc-HIF-1α (hypoxia-inducible factor 1 α) (UniProt Q16665)
Experiment: co-IP; exogenous co-IP in 293T cells co-transfected with tagged UHRF1 and HIF-1α plasmids (whole or truncated), forward and reverse; 1000 µg lysate protein, 2 µg primary antibody overnight at 4 °C, Protein A/G beads, IgG as negative control

binding: binds
B1: Flag-UHRF1 (Ubiquitin-like PHD and RING finger domain-containing protein 1) (protein, UniProt Q96T88 1-793)
chain: MWIQVRTMDGRQTHTVDSLSRLTKVEELRRKIQELFHVEPGLQRLFYRGKQMEDGHTLFDYEVRLNDTIQLLVRQSLVLPHSTKERDSELSDTDSGCCLGQSESDKSSTHGEAAAETDSRPADEDMWDETELGLYKVNEYVDARDTNMGAWFEAQVVRVTRKAPSRDEPCSSTSRPALEEDVIYHVKYDDYPENGVVQMNSRDVRARARTIIKWQDLEVGQVVMLNYNPDNPKERGFWYDAEISRKRETRTARELYANVVLGDDSLNDCRIIFVDEVFKIERPGEGSPMVDNPMRRKSGPSCKHCKDDVNRLCRVCACHLCGGRQDPDKQLMCDECDMAFHIYCLDPPLSSVPSEDEWYCPECRNDASEVVLAGERLRESKKKAKMASATSSSQRDWGKGMACVGRTKECTIVPSNHYGPIPGIPVGTMWRFRVQVSESGVHRPHVAGIHGRSNDGAYSLVLAGGYEDDVDHGNFFTYTGSGGRDLSGNKRTAEQSCDQKLTNTNRALALNCFAPINDQEGAEAKDWRSGKPVRVVRNVKGGKNSKYAPAEGNRYDGIYKVVKYWPEKGKSGFLVWRYLLRRDDDEPGPWTKEGKDRIKKLGLTMQYPEGYLEALANREREKENSKREEEEQQEGGFASPRTGKGKWKRKSAGGGPSRAGSPRRTSKKTKVEPYSLTAQQSSLIREDKSNAKLWNEVLASLKDRPASGSPFQLFLSKVEETFQCICCQELVFRPITTVCQHNVCKDCLDRSFRAQVFSCPACRYDLGRSYAMQVNQPLQTVLNQLFPGYGNGR
